# Experimental data taken from the supplement of paper PMC10032668.
# Chains of the proteins cited; added tags and fusions are not shown.
# PARK7, Q99497, UniProt Q99497, whole entry: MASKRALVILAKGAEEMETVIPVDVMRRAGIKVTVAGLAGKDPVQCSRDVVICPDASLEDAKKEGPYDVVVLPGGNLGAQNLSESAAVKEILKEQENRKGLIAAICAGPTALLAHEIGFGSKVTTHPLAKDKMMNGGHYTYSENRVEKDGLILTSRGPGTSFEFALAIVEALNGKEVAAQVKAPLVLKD
# PGAM5, Q96HS1, UniProt Q96HS1, whole entry: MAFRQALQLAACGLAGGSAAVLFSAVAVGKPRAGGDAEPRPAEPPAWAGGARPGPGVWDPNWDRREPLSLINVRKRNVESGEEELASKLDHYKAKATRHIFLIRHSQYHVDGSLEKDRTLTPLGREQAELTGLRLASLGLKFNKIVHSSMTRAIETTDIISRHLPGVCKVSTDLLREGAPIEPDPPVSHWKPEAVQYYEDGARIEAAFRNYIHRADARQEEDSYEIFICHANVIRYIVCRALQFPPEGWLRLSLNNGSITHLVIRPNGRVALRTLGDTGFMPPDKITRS
# RCC2, Q9P258, UniProt Q9P258, whole entry: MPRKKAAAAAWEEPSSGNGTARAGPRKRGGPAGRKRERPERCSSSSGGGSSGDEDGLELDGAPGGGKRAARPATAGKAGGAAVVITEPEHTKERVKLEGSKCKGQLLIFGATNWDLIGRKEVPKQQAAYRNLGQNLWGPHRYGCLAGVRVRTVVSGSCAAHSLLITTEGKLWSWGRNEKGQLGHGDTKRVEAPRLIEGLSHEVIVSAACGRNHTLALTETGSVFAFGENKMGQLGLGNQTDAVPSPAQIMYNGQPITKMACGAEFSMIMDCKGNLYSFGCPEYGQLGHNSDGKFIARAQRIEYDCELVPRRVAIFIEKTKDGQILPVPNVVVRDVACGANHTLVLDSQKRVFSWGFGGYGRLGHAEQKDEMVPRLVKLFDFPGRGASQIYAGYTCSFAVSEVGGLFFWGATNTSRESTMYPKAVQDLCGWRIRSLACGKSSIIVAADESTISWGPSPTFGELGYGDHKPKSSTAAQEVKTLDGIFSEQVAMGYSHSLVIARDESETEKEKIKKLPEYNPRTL
# TAF4, O00268, UniProt O00268, whole entry: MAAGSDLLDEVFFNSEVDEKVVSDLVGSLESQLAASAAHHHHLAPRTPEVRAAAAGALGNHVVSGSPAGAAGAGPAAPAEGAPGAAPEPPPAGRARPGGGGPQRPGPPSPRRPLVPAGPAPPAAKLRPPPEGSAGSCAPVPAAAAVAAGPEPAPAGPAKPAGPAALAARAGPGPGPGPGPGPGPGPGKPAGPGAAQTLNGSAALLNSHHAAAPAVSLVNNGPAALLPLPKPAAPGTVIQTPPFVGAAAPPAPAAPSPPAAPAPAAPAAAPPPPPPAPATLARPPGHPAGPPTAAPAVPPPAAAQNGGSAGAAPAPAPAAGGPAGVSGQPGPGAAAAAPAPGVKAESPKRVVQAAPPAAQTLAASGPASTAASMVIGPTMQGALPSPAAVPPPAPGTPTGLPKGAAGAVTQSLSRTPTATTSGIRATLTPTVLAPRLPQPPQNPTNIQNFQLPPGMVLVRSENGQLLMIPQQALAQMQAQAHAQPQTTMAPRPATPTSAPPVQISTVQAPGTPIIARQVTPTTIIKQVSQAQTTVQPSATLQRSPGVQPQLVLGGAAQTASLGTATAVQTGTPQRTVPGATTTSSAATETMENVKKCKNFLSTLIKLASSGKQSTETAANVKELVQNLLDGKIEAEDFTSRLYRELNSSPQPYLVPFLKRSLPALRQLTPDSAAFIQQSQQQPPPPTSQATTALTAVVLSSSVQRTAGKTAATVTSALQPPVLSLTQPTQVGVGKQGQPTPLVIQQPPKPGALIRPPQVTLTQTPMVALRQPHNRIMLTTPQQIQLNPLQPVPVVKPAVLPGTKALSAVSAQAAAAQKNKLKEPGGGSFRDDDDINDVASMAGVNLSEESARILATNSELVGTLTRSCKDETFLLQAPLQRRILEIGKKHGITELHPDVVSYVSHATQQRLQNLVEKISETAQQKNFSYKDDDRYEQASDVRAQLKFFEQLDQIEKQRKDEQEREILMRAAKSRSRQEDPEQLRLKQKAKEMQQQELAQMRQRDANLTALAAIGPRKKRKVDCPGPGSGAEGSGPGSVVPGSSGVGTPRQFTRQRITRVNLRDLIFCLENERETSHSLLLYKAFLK
# Some of the results follow. Only hits are listed; about a third recur on repeated control peptides.
# B1: LINC01560 (peptide)
# chain: VGSLTQLGPSRPVLG
# Key:
# Test in all cases: PRISMA enrichment of interactor (LFQ) in peptide spot vs all other peptide spots (log2 fold change); higher = stronger / more specific binding of the interactor to the peptide
# ABCE1, P61221 = target: ABCE1, P61221
# Experimental: (§1)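 PRISMA: 15-aa overlapping tiles (offset 8 aa) of 60 microproteins, plus SOS1/GLUT1 control peptides, were spot-synthesized on cellulose membranes in triplicate. Membranes were incubated with benzonase-treated HEK293T lysate, and bound proteins were identified by LC-MS/MS with LFQ. Enrichment is the log2 fold change of each protein in one spot versus all other spots. Only interactors passing the significance cutoff are listed.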
# BMS1, Q14692 = target: BMS1, Q14692
# Experimental: as §1
# BYSL, Q13895 = target: BYSL, Q13895
# Experimental: as §1
# CCAR1, Q8IX12 = target: CCAR1, Q8IX12
# Experimental: as §1
# CHD4, Q14839 = target: CHD4, Q14839
# Experimental: as §1
# COL4A3BP, Q9Y5P4 = target: COL4A3BP, Q9Y5P4
# Experimental: as §1
# CRNKL1, Q9BZJ0 = target: CRNKL1, Q9BZJ0
# Experimental: as §1
# EIF2AK2, P19525 = target: EIF2AK2, P19525
# Experimental: as §1
# ELOVL1, Q9BW60 = target: ELOVL1, Q9BW60
# Experimental: as §1
# FARP2, O94887 = target: FARP2, O94887
# Experimental: as §1
# FGA, P02671 = target: FGA, P02671
# Experimental: as §1
# GCFC2, P16383 = target: GCFC2, P16383
# Experimental: as §1
# GMPS, P49915 = target: GMPS, P49915
# Experimental: as §1
# HCFC1, P51610 = target: HCFC1, P51610
# Experimental: as §1
# HNRNPDL, O14979 = target: HNRNPDL, O14979
# Experimental: as §1
# LLPH, Q9BRT6 = target: LLPH, Q9BRT6
# Experimental: as §1
# MAP7D1, Q3KQU3 = target: MAP7D1, Q3KQU3
# Experimental: as §1
# NAA10, P41227 = target: NAA10, P41227
# Experimental: as §1
# NEPRO, Q6NW34 = target: NEPRO, Q6NW34
# Experimental: as §1
# PARK7, Q99497 = target: PARK7, Q99497
# Experimental: as §1
# PGAM5, Q96HS1 = target: PGAM5, Q96HS1
# Experimental: as §1
# PPP1R14A, Q96A00 = target: PPP1R14A, Q96A00
# Experimental: as §1
# QKI, Q96PU8 = target: QKI, Q96PU8
# Experimental: as §1
# RCC2, Q9P258 = target: RCC2, Q9P258
# Experimental: as §1
# RMDN3, Q96TC7 = target: RMDN3, Q96TC7
# Experimental: as §1
# RRP12, Q5JTH9 = target: RRP12, Q5JTH9
# Experimental: as §1
# RTF1, Q92541 = target: RTF1, Q92541
# Experimental: as §1
# RTN4, Q9NQC3 = target: RTN4, Q9NQC3
# Experimental: as §1
# SEC22B, O75396 = target: SEC22B, O75396
# Experimental: as §1
# SNX2, O60749 = target: SNX2, O60749
# Experimental: as §1
# TAF4, O00268 = target: TAF4, O00268
# Experimental: as §1
# TBCD, Q9BTW9 = target: TBCD, Q9BTW9
# Experimental: as §1
# TBL3, Q12788 = target: TBL3, Q12788
# Experimental: as §1
# UQCR10, Q9UDW1 = target: UQCR10, Q9UDW1
# Experimental: as §1
binder,measurement,setting,value
B1,PRISMA enrichment of interactor (log2),"ABCE1, P61221",4.44
same,PRISMA enrichment of interactor (log2),"BMS1, Q14692",6.66
same,PRISMA enrichment of interactor (log2),"BYSL, Q13895",5.97
same,PRISMA enrichment of interactor (log2),"CCAR1, Q8IX12",5.26
same,PRISMA enrichment of interactor (log2),"CHD4, Q14839",6.26
same,PRISMA enrichment of interactor (log2),"COL4A3BP, Q9Y5P4",4.65
same,PRISMA enrichment of interactor (log2),"CRNKL1, Q9BZJ0",4.85
same,PRISMA enrichment of interactor (log2),"EIF2AK2, P19525",7.14
same,PRISMA enrichment of interactor (log2),"ELOVL1, Q9BW60",5.18
same,PRISMA enrichment of interactor (log2),"FARP2, O94887",4.87
same,PRISMA enrichment of interactor (log2),"FGA, P02671",4.94
same,PRISMA enrichment of interactor (log2),"GCFC2, P16383",4.94
same,PRISMA enrichment of interactor (log2),"GMPS, P49915",5.2
same,PRISMA enrichment of interactor (log2),"HCFC1, P51610",7.96
same,PRISMA enrichment of interactor (log2),"HNRNPDL, O14979",5.23
same,PRISMA enrichment of interactor (log2),"LLPH, Q9BRT6",5.25
same,PRISMA enrichment of interactor (log2),"MAP7D1, Q3KQU3",8.42
same,PRISMA enrichment of interactor (log2),"NAA10, P41227",4.17
same,PRISMA enrichment of interactor (log2),"NEPRO, Q6NW34",5.58
same,PRISMA enrichment of interactor (log2),"PARK7, Q99497",5.28
same,PRISMA enrichment of interactor (log2),"PGAM5, Q96HS1",5.37
same,PRISMA enrichment of interactor (log2),"PPP1R14A, Q96A00",4.82
same,PRISMA enrichment of interactor (log2),"QKI, Q96PU8",6.8
same,PRISMA enrichment of interactor (log2),"RCC2, Q9P258",6.33
same,PRISMA enrichment of interactor (log2),"RMDN3, Q96TC7",7.98
same,PRISMA enrichment of interactor (log2),"RRP12, Q5JTH9",5.32
same,PRISMA enrichment of interactor (log2),"RTF1, Q92541",5.3
same,PRISMA enrichment of interactor (log2),"RTN4, Q9NQC3",4.05
same,PRISMA enrichment of interactor (log2),"SEC22B, O75396",5.97
same,PRISMA enrichment of interactor (log2),"SNX2, O60749",5.64
same,PRISMA enrichment of interactor (log2),"TAF4, O00268",5.82
same,PRISMA enrichment of interactor (log2),"TBCD, Q9BTW9",7.2
same,PRISMA enrichment of interactor (log2),"TBL3, Q12788",3.93
same,PRISMA enrichment of interactor (log2),"UQCR10, Q9UDW1",5.26

# Part of the list above, as tab-separated lines:
binder	measurement	setting	value
B1	PRISMA enrichment of interactor (log2)	LLPH, Q9BRT6	5.25
same	PRISMA enrichment of interactor (log2)	MAP7D1, Q3KQU3	8.42
same	PRISMA enrichment of interactor (log2)	NAA10, P41227	4.17
same	PRISMA enrichment of interactor (log2)	NEPRO, Q6NW34	5.58
same	PRISMA enrichment of interactor (log2)	PARK7, Q99497	5.28
same	PRISMA enrichment of interactor (log2)	PGAM5, Q96HS1	5.37
same	PRISMA enrichment of interactor (log2)	PPP1R14A, Q96A00	4.82
same	PRISMA enrichment of interactor (log2)	QKI, Q96PU8	6.8
same	PRISMA enrichment of interactor (log2)	RCC2, Q9P258	6.33
